Experimental data reported in PubChem BioAssay AID651644 (National Center for Advancing Translational Sciences (NCATS), 2012).
Screen size: about 360,000 compounds; about 750 (0.21%) were called active. Listed are the inconclusive results; actives and inactives stand elsewhere. Calls follow the shape of the dose curve; as a rule, active = well fitted falling curve with a large enough effect; inconclusive = small, poorly fitted or top-dose-only effect; inactive = no such curve, though single readings can be large or run the other way.

Experiment: qHTS Assay for Inhibitors of the HIV-1 protein Vpr; also: nearly all actives have a fitted effect of over 50% in size
Settings: S. pombe RE007 Vpr strain, BacTiter-Glo ATP luminescence, 24 h
Potency is read from the fitted curve at half-maximal effect.

SMILES	Potency
O=[N+]([O-])c1cc([N+](=O)[O-])c(Nc2ccccn2)c([N+](=O)[O-])c1	inconclusive: 15.8 µM
CCCCCCCCCCCCCCCC1C[N+](C)(C)CCOP(C)(=O)O1 (stereo not given)	inconclusive: 31.6 µM
CCCCCOc1ccc(NP(C)(=O)Oc2ccc(Cl)cc2Cl)cc1 (stereo not given)	inconclusive: 56.2 µM
CC1CCOC(=O)C=CC=CC(=O)OC2CC3OC4C5OC5(C)CCC4(COC(=O)C1O)C2(C)C31CO1 (stereo not given)	inconclusive: 5.01 µM
CP(=O)(Nc1ccc(SC(F)(F)F)cc1)Oc1ccc(Cl)cc1 (stereo not given)	inconclusive: 35.5 µM
